Data taken from US20070274928A1, “Novel Cyclic Oxygenated Compounds Having Cooling, Fragrance, and Flavor Properties, and Uses Thereof” (priority 2003, published 2007).

Assay: Odor and taste evaluation
Parameters: species or system human
Details: pure / purified compound

| Compound | odor / scent |
| --- | --- |
| CC(C)=CC1C(=O)C=C(C)C1(C)C (centres unmarked) [(10)] | very agreeable berry-like, raspberry-like odor and taste |
| CC1CC2(C)OC(=O)CC2C1(C)C (centres unmarked) [(129)] | pleasant fruity-woody-coconut odor of moderate to weak strength |
| CC1(C)CC2C(=O)CC(C)(O1)C2(C)C (centres unmarked) [(147)] | characteristic woody-camphoraceous odor |
| CC1=C[C@]2(C)OC(=O)CC2C1(C)C (some centres unmarked) [compound (6)] | very agreeable and pleasant woody, mahogany-like, tobacco like, somewhat fruity odor |
| CC1=CC2(O)OC(C)(C)CC2C1(C)C (centres unmarked) [compound (7)] | very weak menthol-like scent |
| CC1=CC(=O)C(CC(C)(C)O)C1(C)C (centres unmarked) [compound (8)] | practically odorless |
| CC1=CC(C)(O)C(CC(C)(C)O)C1(C)C (centres unmarked) [compound (9)] | practically odorless and tasteless |
| CC1=CC2(C)OC(C)(C)CC2C1(C)C (centres unmarked) [compound (11)] | characteristic woody-ambery agreeable odor |
| CC1CC2(O)OC(C)(C)CC2C1(C)C (centres unmarked) [compound (15)] | potent menthol-like, woody odor |
| CC1CC(=O)C(CC(C)(C)O)C1(C)C (centres unmarked) [compound (16)] | practically odorless |
| sodium ketocampholenate monohydrate | virtually odorless |
